Data as given in PubChem BioAssay AID1259254 (NCATS, 2017).
Here is one part, drawn at random, of about 59,000 deposited reagents. About 1,550 of them (2.6%) were called active. 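G2 share is only a proxy for re-replication; each gene was hit by three separate siRNAs, and active genes were retested.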 Entries without a mark were called inactive. Reagents against one gene are numbered here. Further read-outs or replicates are left out here. No sequences are given here. The record does not give: the amount of reagent.

Purpose: 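Finding genes that stop cells copying their DNA twice in one cycle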 (primary screen)
Cell system: human HCT116 colorectal cancer cells
Reagent: single siRNA against human genes
Duration: 3 days
Measured: 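Imaged Hoechst DNA stain sorts each cell into a cycle phase by DNA amount; per plate, G2 fraction set to 0% for non-targeting and 100% for GMNN siRNA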
Scale: G2 robust z-score and G2 cells, % of GMNN control: higher = more G2 cells, more excess DNA replication
Rule for the call: 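An siRNA counts as active if its G2 robust z-score lies at least 5 MADs above the screen median; here such calls match roughly 38% of GMNN control or more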

C19orf47 (chromosome 19 open reading frame 47) #1 gave G2 robust z-score 0.8; G2 cells, % of GMNN control 8.6.
Depletion of C19orf47 (chromosome 19 open reading frame 47) #2 came out at: G2 robust z-score -0.198; G2 cells, % of GMNN control 1.58.
With knock-down of C19orf47 (chromosome 19 open reading frame 47) #3, the record shows G2 robust z-score -0.538; G2 cells, % of GMNN control -0.821.
With knock-down of CHAC2 (ChaC glutathione specific gamma-glutamylcyclotransferase 2) #1, the screen gave G2 robust z-score -0.632; G2 cells, % of GMNN control -1.48.
Knock-down of CHAC2 (ChaC glutathione specific gamma-glutamylcyclotransferase 2) #2 resulted in: G2 robust z-score 0.806; G2 cells, % of GMNN control 8.64.
With knock-down of CHAC2 (ChaC glutathione specific gamma-glutamylcyclotransferase 2) #3 the results were G2 robust z-score -0.262; G2 cells, % of GMNN control 1.12.
ZC3H3 (zinc finger CCCH-type containing 3) #1 gave G2 robust z-score 9.22 (active); G2 cells, % of GMNN control 67.9.
Silencing of ZC3H3 (zinc finger CCCH-type containing 3) #2 came out at: G2 robust z-score 0.852; G2 cells, % of GMNN control 8.96.
After knock-down of ZC3H3 (zinc finger CCCH-type containing 3) #3 the results were G2 robust z-score -0.626; G2 cells, % of GMNN control -1.43.
With knock-down of OIP5-AS1 (OIP5 antisense RNA 1) #1 the results were G2 robust z-score 1.29; G2 cells, % of GMNN control 12.
After knock-down of OIP5-AS1 (OIP5 antisense RNA 1) #2, the record shows G2 robust z-score 0.988; G2 cells, % of GMNN control 9.92.
Against OIP5-AS1 (OIP5 antisense RNA 1) #3, the entry reads G2 robust z-score 0.874; G2 cells, % of GMNN control 9.11.
C1DP3 (C1D nuclear receptor corepressor pseudogene 3) #1 gave G2 robust z-score 7.65 (active); G2 cells, % of GMNN control 56.8.
After knock-down of C1DP3 (C1D nuclear receptor corepressor pseudogene 3) #2, the record shows G2 robust z-score 1.04; G2 cells, % of GMNN control 10.3.
With knock-down of C1DP3 (C1D nuclear receptor corepressor pseudogene 3) #3, the screen gave G2 robust z-score -0.488; G2 cells, % of GMNN control -0.465.
C9orf72 (C9orf72-SMCR8 complex subunit) #1 scored G2 robust z-score 1.83; G2 cells, % of GMNN control 15.8.
After knock-down of C9orf72 (C9orf72-SMCR8 complex subunit) #2, the record shows G2 robust z-score 0.52; G2 cells, % of GMNN control 6.63.
Silencing of C9orf72 (C9orf72-SMCR8 complex subunit) #3 gave: G2 robust z-score -0.304; G2 cells, % of GMNN control 0.826.
ZBTB32 (zinc finger and BTB domain containing 32) #1 scored G2 robust z-score -0.838; G2 cells, % of GMNN control -2.93.
ZBTB32 (zinc finger and BTB domain containing 32) #2 gave G2 robust z-score 1.54; G2 cells, % of GMNN control 13.8.
For ZBTB32 (zinc finger and BTB domain containing 32) #3, the values are G2 robust z-score 2.34; G2 cells, % of GMNN control 19.4.
Knock-down of H2BC11 (H2B clustered histone 11) #1 resulted in: G2 robust z-score 0.508; G2 cells, % of GMNN control 6.54.
H2BC11 (H2B clustered histone 11) #2 scored G2 robust z-score -0.223; G2 cells, % of GMNN control 1.4.
Against H2BC11 (H2B clustered histone 11) #3 the deposit lists G2 robust z-score -0.781; G2 cells, % of GMNN control -2.53.
Knock-down of TRPC4 #1 resulted in: G2 robust z-score 0.324; G2 cells, % of GMNN control 5.25.
Against TRPC4 #2 the deposit lists G2 robust z-score -1.25; G2 cells, % of GMNN control -5.84.
TRPC4 #3 gave G2 robust z-score -0.889; G2 cells, % of GMNN control -3.29.
CYP17A1 (cytochrome P450 family 17 subfamily A member 1) #1 gave G2 robust z-score 0.876; G2 cells, % of GMNN control 9.13.
With knock-down of CYP17A1 (cytochrome P450 family 17 subfamily A member 1) #2 the results were G2 robust z-score -0.176; G2 cells, % of GMNN control 1.73.
CYP17A1 (cytochrome P450 family 17 subfamily A member 1) #3 gave G2 robust z-score 1.03; G2 cells, % of GMNN control 10.2.
